Substitutions are numbered along the chain they refer to. These are yes or no findings as the source states them, for the method shown. Binding seen in cells or lysates may run through a third protein. Some binding calls cover weakened binding; strength is not graded here. For some assays here: Where a sequence is shown, tags or fusion partners need not be part of it.
Key:
Experiment in all cases: co-IP
[1] = target: T1, Inhibitor of Differentiation 4 (ID4) (human (endogenous in PMC42)) (UniProt P47928)
T1 sequence: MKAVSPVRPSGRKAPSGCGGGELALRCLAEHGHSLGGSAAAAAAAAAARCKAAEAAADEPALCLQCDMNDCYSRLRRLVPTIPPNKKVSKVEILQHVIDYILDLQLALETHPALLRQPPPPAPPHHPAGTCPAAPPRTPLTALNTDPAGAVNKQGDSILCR

Sequences of proteins named here, by UniProt entry; tags and fusion partners are left off. A change or cut given only in a name is not applied to a line headed by its entry.
UniProt Q99081: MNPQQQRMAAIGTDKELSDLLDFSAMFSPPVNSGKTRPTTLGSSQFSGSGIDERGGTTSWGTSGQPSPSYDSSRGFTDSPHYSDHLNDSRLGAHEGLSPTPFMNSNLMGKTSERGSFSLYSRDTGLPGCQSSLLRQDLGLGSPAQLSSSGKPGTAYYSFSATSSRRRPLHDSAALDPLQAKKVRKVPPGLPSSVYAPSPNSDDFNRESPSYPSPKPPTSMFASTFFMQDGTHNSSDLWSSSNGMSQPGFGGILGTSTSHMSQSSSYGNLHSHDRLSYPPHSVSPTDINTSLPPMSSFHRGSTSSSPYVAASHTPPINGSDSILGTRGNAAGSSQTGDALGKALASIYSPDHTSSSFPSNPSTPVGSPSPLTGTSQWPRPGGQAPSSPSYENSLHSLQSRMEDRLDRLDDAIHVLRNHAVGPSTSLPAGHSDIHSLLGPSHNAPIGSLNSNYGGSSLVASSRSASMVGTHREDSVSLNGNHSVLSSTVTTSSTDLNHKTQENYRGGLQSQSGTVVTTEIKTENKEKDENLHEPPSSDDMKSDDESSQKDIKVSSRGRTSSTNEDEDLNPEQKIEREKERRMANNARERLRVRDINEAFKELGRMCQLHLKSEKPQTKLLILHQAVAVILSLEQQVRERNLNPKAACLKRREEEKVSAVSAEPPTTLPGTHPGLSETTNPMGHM
UniProt P15923: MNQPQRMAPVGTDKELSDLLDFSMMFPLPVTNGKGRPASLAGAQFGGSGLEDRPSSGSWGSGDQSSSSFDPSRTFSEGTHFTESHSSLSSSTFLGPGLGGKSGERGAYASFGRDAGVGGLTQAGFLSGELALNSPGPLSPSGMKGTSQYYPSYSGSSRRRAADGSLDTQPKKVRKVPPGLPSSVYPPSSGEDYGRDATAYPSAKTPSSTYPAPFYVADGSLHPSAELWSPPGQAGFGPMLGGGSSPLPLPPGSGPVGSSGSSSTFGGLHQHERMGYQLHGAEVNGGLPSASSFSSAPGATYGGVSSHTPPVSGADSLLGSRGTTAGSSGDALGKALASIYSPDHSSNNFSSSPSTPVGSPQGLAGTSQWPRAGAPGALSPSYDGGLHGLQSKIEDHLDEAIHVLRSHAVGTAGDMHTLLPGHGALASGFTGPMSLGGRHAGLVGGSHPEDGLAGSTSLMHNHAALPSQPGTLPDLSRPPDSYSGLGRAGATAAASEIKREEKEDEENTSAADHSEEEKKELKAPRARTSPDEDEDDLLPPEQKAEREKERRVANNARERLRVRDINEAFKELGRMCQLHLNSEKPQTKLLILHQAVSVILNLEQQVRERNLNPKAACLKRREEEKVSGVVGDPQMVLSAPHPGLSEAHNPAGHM
UniProt Q61286: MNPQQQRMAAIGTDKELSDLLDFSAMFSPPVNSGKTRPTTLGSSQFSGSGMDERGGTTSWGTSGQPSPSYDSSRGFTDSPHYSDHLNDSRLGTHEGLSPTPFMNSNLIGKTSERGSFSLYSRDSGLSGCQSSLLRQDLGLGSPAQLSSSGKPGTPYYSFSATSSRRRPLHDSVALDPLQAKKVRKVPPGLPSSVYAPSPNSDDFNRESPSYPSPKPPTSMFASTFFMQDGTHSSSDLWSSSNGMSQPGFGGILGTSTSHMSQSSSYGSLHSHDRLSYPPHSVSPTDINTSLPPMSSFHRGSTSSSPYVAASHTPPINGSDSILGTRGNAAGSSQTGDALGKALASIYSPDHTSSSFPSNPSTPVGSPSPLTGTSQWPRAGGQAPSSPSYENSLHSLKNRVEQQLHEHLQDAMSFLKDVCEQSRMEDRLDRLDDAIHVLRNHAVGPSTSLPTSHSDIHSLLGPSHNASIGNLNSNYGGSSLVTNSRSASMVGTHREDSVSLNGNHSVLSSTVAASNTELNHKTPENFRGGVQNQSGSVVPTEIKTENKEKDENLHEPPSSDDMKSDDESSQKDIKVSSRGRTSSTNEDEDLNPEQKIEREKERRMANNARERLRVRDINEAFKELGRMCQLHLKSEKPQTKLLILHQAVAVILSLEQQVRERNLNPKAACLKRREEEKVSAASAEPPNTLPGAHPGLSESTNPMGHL

Flag-tagged ID4 protein = target: T2, Flag-tagged ID4 protein (UniProt P47928)
T2 sequence: T1 sequence

[2] = target: HEB (human (endogenous in PMC42)) (UniProt Q99081)
[3] = target: E2A (human (endogenous in PMC42)) (UniProt P15923)
[4] = target: HEB (human (endogenous in MCF10A)) (UniProt Q99081)
[5] = target: E2A (human (endogenous in MCF10A)) (UniProt P15923)
[6] = target: HEB (mouse (endogenous in mammary gland)) (UniProt Q61286)
[7] = target: HEB (mouse (endogenous in Comma-Dβ)) (UniProt Q61286)

HEB (from UniProt Q99081 1-682)
binding [1]: binds
binding (Flag-tagged ID4 protein): binds

B1: Inhibitor of Differentiation 4 (ID4) (protein, UniProt P47928 1-161)
chain: T1 sequence
binding [2]: binds
binding [3]: binds

B2: Flag-tagged ID4 protein (protein, UniProt P47928 1-161)
chain: T1 sequence
binding [4]: binds
binding [5]: binds

B3: FlagV5-tagged ID4 protein (protein, UniProt P41139 1-161)
chain: T1 sequence with H125L, T130A, A133V
binding [6]: binds

B4: Inhibitor of Differentiation 4 (ID4) (protein, UniProt P41139 1-161)
chain: T1 sequence with H125L, T130A, A133V
binding [7]: binds

From publication doi:10.1101/2020.04.06.026963
